# According to paper PMC4117762:
# Protein sequences, listed by entry. Tags and fused reporters are not part of them. Lines headed by an entry give the natural chain unless they say otherwise; changes in a name come on top. Residues count along the entry.
# UniProt Q04206: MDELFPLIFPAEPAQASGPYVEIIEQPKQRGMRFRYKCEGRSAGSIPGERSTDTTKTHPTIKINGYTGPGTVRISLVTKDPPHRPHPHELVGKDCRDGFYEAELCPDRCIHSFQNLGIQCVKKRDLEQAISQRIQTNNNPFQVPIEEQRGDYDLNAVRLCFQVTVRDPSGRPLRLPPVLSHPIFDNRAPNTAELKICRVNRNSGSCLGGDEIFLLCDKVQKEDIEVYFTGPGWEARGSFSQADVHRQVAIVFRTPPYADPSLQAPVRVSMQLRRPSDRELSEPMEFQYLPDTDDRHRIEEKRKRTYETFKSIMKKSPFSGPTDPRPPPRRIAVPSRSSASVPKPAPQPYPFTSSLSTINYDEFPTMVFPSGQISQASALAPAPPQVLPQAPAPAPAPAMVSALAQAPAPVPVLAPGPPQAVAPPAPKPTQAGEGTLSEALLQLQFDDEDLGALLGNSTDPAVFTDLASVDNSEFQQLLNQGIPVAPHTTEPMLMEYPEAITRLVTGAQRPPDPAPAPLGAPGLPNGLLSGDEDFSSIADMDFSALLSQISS
# GST-RelA (1–431): residues 1-431 of Q04206
# UniProt Q96LA8: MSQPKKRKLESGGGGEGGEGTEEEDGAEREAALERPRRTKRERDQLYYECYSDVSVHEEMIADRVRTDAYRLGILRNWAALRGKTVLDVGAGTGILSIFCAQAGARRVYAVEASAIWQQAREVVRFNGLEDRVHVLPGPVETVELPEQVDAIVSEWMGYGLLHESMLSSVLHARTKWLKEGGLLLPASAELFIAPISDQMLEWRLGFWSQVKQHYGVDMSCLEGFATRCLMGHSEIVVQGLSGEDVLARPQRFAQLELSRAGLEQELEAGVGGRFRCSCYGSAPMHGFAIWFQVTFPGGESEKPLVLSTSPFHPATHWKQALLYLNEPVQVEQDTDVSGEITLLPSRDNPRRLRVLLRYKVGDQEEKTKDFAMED
# UniProt Q6NZB1: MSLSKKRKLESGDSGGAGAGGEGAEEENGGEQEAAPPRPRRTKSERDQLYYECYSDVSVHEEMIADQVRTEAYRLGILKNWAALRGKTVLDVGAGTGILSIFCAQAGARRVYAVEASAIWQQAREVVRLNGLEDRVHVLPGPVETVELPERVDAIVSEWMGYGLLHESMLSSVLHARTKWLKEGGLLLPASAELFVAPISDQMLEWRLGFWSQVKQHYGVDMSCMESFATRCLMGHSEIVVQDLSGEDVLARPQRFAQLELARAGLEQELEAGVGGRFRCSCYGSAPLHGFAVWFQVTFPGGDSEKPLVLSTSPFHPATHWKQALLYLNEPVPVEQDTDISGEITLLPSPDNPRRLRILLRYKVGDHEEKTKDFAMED
# UniProt Q04207: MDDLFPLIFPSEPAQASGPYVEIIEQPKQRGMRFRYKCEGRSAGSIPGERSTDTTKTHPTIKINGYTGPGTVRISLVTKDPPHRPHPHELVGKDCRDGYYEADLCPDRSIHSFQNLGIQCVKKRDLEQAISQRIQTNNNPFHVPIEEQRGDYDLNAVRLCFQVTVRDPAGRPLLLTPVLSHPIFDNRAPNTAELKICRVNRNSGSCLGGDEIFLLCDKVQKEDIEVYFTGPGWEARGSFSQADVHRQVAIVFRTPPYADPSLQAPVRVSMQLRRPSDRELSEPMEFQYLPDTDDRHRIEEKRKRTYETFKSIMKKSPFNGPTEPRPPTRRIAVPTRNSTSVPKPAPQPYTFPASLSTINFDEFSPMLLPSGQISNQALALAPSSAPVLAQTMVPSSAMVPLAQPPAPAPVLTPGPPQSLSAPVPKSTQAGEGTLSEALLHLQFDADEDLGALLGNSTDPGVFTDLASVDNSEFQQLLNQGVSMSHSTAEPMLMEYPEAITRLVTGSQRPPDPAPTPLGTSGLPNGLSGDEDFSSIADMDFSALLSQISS
# These are yes or no findings as the source states them, for the method shown. For part of these data: In cells and extracts the contact can be indirect. Some results given as binding are weak or reduced against the parent protein; the word gives no strength. For part of these data: Where a sequence is shown, tags or fusion partners need not be part of it.
# Tests used:
# GST-RelA (1–431) = GST-RelA (1–431) (UniProt Q04206); experiment: pull-down; 10 μg of eluted GST fusion protein and His-PRMT6 incubated in co-IP buffer (50 mM Tris-HCl pH 7.5, 150 mM NaCl, 0.1% NP-40, 5 mM EDTA, 5 mM EGTA, 15 mM MgCl2) overnight at 4 °C; pulled down with glutathione beads 2 h at 4°C; WB αHis; both purified
# GFP-PRMT6 = GFP-PRMT6 (UniProt Q96LA8); experiment: co-IP; HEK 293 transiently transfected with GFP, GFP-CARM1 or GFP-PRMT6 along with pCDNA-RelA for 48 h, TNF-α 30 min; IP with αGFP or αIgG, WB αRelA
# GFP-CARM1 = biological target: T1, GFP-CARM1 (UniProt Q86X55); experiment: as above
# T1 sequence: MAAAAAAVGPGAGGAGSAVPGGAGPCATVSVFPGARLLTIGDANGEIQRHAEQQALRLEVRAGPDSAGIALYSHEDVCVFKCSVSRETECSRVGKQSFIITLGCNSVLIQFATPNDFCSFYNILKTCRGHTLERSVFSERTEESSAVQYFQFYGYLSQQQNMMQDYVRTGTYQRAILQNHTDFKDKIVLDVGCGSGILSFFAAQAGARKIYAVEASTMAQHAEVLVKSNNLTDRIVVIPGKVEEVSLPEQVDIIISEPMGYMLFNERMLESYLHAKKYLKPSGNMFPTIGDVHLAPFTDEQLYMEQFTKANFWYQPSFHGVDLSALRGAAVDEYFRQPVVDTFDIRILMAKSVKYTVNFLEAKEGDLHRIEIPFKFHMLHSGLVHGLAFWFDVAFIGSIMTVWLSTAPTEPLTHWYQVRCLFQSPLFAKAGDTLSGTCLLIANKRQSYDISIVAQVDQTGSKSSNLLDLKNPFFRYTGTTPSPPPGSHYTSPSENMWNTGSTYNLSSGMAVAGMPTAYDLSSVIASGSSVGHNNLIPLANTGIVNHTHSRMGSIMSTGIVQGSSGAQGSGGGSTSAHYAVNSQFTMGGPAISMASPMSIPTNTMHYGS
# [1] = biological target: PRMT6, endogenous in HEK 293 cells (human (endogenous in HEK 293)) (UniProt Q96LA8); experiment: co-IP; HEK 293 at 90% confluency, endogenous proteins; lysate in co-IP buffer incubated with αIgG or αPRMT6 overnight, then protein A/G agarose; WB αRelA
# [2] = biological target: Flag-PRMT6 (not fused to ER*) (human) (UniProt Q96LA8); experiment: co-IP; HEK 293 transiently transfected with Flag-PRMT6 (not fused to ER*); co-IP (Supplementary Figure S3B)
# [3] = biological target: PRMT6, endogenous in mouse embryonic fibroblasts (mouse (endogenous in MEFs)) (UniProt Q6NZB1); experiment: co-IP; immortalized WT and PRMT6-KO MEFs at 90% confluency, endogenous proteins; lysate in co-IP buffer incubated with αPRMT6 overnight, then protein A/G agarose; WB αRelA
substance,measurement,setting,value
His-PRMT6 (from UniProt Q96LA8 1-375) (enzyme),binding,GST-RelA (1–431),binds
RelA expressed from a pCDNA-RelA vector (from UniProt Q04206 1-551),binding,GFP-PRMT6,binds
same,binding,GFP-CARM1,binds
"RelA subunit of NF-κB, endogenous in HEK 293 cells (from UniProt Q04206 1-551)",binding,[1],binds
same,binding,[2],binds
"RelA subunit of NF-κB, endogenous in mouse embryonic fibroblasts (from UniProt Q04207 1-549)",binding,[3],binds
